Test results as given in paper PMC4499803.
Results are given in words; binding and its absence hold for the method and conditions named. Binding seen in cells or lysates may run through a third protein. Binding can be weak; no strength is given.

Protein sequences, listed by entry. Tags and fused reporters are not part of them. Lines headed by an entry give the natural chain unless they say otherwise; changes in a name come on top.
UniProt Q14247: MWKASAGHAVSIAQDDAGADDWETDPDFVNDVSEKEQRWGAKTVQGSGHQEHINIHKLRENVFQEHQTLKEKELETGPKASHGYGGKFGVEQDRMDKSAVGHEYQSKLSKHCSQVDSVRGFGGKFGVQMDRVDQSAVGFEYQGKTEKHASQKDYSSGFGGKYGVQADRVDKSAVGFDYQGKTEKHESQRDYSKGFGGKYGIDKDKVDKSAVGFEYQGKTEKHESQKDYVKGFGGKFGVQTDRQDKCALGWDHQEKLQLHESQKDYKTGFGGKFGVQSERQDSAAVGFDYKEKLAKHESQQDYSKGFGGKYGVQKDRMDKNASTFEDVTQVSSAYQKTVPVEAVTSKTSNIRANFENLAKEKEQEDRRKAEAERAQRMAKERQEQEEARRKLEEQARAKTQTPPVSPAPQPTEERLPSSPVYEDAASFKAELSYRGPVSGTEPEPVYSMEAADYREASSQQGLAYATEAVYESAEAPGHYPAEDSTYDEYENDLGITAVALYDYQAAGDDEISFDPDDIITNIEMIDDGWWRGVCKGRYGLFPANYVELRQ
UniProt O00213: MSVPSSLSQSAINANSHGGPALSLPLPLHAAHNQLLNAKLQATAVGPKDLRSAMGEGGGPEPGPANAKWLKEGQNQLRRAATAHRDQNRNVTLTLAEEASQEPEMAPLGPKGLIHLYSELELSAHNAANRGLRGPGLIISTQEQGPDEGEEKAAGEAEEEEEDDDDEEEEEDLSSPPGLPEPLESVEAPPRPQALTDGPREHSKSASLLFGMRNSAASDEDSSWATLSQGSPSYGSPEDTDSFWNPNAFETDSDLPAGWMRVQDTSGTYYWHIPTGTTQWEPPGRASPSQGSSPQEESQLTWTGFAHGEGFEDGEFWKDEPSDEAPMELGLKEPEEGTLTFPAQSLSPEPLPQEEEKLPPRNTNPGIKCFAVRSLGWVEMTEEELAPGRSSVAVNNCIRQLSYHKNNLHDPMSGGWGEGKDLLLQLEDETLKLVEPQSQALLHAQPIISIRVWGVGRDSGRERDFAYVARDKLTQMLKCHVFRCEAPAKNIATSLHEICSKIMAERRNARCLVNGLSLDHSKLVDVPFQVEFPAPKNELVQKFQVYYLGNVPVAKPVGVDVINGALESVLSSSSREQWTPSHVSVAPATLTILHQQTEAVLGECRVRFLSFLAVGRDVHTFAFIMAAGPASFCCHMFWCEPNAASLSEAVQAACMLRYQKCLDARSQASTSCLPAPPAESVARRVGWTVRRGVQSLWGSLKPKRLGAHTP

Target: Flag-tagged cortactin (UniProt Q14247)
Assay: co-IP; 293T cells co-transfected with Flag-cortactin and Myc-Fe65 or deletion constructs; cellular extracts (20 mM Tris-HCl pH 7.5, 150 mM NaCl, 1 mM EDTA, 1% NP-40) incubated with anti-Flag beads overnight at 4 °C; immunoblot

Row | binding | Substance
1 | no binding | Myc-Fe65 mutant with the PTB1 domain deleted (from UniProt O00213)
2 | binds | Myc-Fe65 mutant with the PTB2 domain deleted (from UniProt O00213)
3 | binds | Myc-Fe65 mutant with the WW domain deleted (from UniProt O00213)
